# Data as given in PubChem BioAssay AID1259308 (NCATS, 2017).
# Test: 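Knock-downs that increase output of a recombinant reporter protein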 (primary screen)
# Cells: human HEK293 embryonic kidney cells stably expressing firefly luciferase (HEK-CMV-Luc2-Hygro)
# Reagents: single siRNA against human genes, 0.8 pmol siRNA per well
# Time to read-out: 72 h
# Read-out: 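Luciferase light (ONE-Glo) measured on one replicate plate set and viability (CellTiter-Glo) on the other, scaled to a negative control siRNA, with robust z-scores and luciferase per cell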
# Reading the numbers: total luciferase, z-score and total luciferase, % of control: higher = more reporter protein produced; luciferase per cell, z-score: higher = more reporter output per viable cell; viable cells, % of control: higher = more viable cells
# Active means: 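Active when the median/MAD z-score for overall luciferase is greater than 3; a gene was taken forward for validation with new siRNAs if at least two of its three siRNAs passed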
# Meaning of the calls: active = raised luciferase; inactive = no rise
# This is one part, drawn at random, of about 59,000 reagents tested. About 1,510 of all reagents (2.6%) count as active. 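Calls use total luciferase alone and ignore viability, so some active siRNAs may act by altering cell number.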
gene,PubChem SID,"total luciferase, z-score","total luciferase, % of control","luciferase per cell, z-score","viable cells, % of control",activity call
PPIAP72 (GeneID 256374),SID160724960,-0.904,63.9,-0.72,86.3,inactive
PPIAP72 (GeneID 256374),SID160732826,0.165,85.2,-0.114,98.1,inactive
PPIAP72 (GeneID 256374),SID160762440,0.754,96.9,0.369,98.3,inactive
CUEDC2 (GeneID 79004),SID160748461,-0.192,78.1,-0.367,96.1,inactive
CUEDC2 (GeneID 79004),SID160748462,-0.763,66.7,-1.23,103,inactive
CUEDC2 (GeneID 79004),SID160748463,1.79,118,0.976,102,inactive
CLEC2B (GeneID 9976),SID160723593,1.34,109,0.685,101,inactive
CLEC2B (GeneID 9976),SID160723594,0.886,99.5,0.758,91.1,inactive
CLEC2B (GeneID 9976),SID160723595,1.23,106,2,70.2,inactive
SGCE (GeneID 8910),SID160721122,0.845,98.7,0.791,89.5,inactive
SGCE (GeneID 8910),SID160721123,-0.828,65.4,0.513,63.9,inactive
SGCE (GeneID 8910),SID160721124,-0.942,63.2,-1.03,92.5,inactive
MGMT (GeneID 4255),SID160731230,-0.839,65.2,-0.631,86,inactive
MGMT (GeneID 4255),SID160777223,0.922,100,0.625,95,inactive
MGMT (GeneID 4255),SID160777224,-0.979,62.4,-0.229,74.1,inactive
METAP2 (GeneID 10988),SID160729683,0.449,90.8,1.05,76.9,inactive
METAP2 (GeneID 10988),SID160729684,0.544,92.7,0.534,90,inactive
METAP2 (GeneID 10988),SID160729685,-0.694,68.1,-0.706,91.6,inactive
HROB (GeneID 78995),SID160748441,-0.54,71.1,-0.382,87.9,inactive
HROB (GeneID 78995),SID160748442,-0.497,72,-0.646,95.4,inactive
HROB (GeneID 78995),SID160748443,-1.66,48.9,-2.21,97.9,inactive
MIOS (GeneID 54468),SID160741736,-0.758,66.8,-0.408,83.1,inactive
MIOS (GeneID 54468),SID160741737,0.286,87.6,-0.425,109,inactive
MIOS (GeneID 54468),SID160741738,0.368,89.2,0.656,83.9,inactive
RSAD1 (GeneID 55316),SID160743516,0.0302,82.5,0.83,74.1,inactive
RSAD1 (GeneID 55316),SID160743517,-1.02,61.6,-0.398,76.4,inactive
RSAD1 (GeneID 55316),SID160743518,1.09,104,0.586,99.2,inactive
FOXD3 (GeneID 27022),SID160724357,1.3,108,0.56,104,inactive
FOXD3 (GeneID 27022),SID160724359,0.137,84.6,-0.364,104,inactive
FOXD3 (GeneID 27022),SID160724360,1.62,114,3.14,55.8,inactive
CIAO3 (GeneID 64428),SID160747782,0.0257,82.4,0.289,85.3,inactive
CIAO3 (GeneID 64428),SID160747783,-1.19,58.2,-1.68,101,inactive
CIAO3 (GeneID 64428),SID160747784,0.625,94.3,-0.427,118,inactive
NPIPB1P (GeneID 729602),SID160727113,0.286,87.6,0.241,91.8,inactive
NPIPB1P (GeneID 729602),SID160727115,0.112,84.1,-0.532,108,inactive
NPIPB1P (GeneID 729602),SID160772945,0.505,91.9,0.0876,100,inactive
TLE6 (GeneID 79816),SID160734954,0.394,89.7,0.552,86.7,inactive
TLE6 (GeneID 79816),SID160749509,-0.851,65,-0.626,85.6,inactive
TLE6 (GeneID 79816),SID160749510,-1.93,43.6,-1.92,80.7,inactive
CPXCR1 (GeneID 53336),SID160741379,-0.862,64.7,-0.564,83.9,inactive
CPXCR1 (GeneID 53336),SID160741380,-0.674,68.5,-0.894,96.8,inactive
CPXCR1 (GeneID 53336),SID160741381,-1.06,60.7,-2.04,116,inactive
THOC3 (GeneID 84321),SID160752160,0.716,96.1,0.115,104,inactive
THOC3 (GeneID 84321),SID160752161,1.12,104,0.874,92.4,inactive
THOC3 (GeneID 84321),SID160752162,3.81,158,2.98,80.5,active
NRDC (GeneID 4898),SID160778237,0.317,88.2,0.067,96.8,inactive
NRDC (GeneID 4898),SID160778238,-0.439,73.2,-0.768,100,inactive
NRDC (GeneID 4898),SID160778239,-1.81,45.9,-1.49,75.9,inactive
HECW1 (GeneID 23072),SID160735380,-0.339,75.1,-0.279,90.4,inactive
HECW1 (GeneID 23072),SID160735381,-0.134,79.2,-0.443,99.5,inactive
HECW1 (GeneID 23072),SID160735383,-0.573,70.5,-0.994,102,inactive
CACNA2D3 (GeneID 55799),SID160744389,0.317,88.2,-0.0848,101,inactive
CACNA2D3 (GeneID 55799),SID160744390,-0.577,70.4,0.373,71.3,inactive
CACNA2D3 (GeneID 55799),SID160744392,0.242,86.7,-0.648,115,inactive
USF3 (GeneID 205717),SID160761196,-0.685,68.3,-0.356,83.8,inactive
USF3 (GeneID 205717),SID160761197,1.45,111,1.24,89.2,inactive
USF3 (GeneID 205717),SID160761198,-0.76,66.8,-1.09,99.4,inactive
RASSF1 (GeneID 11186),SID160730155,1.28,107,0.626,102,inactive
RASSF1 (GeneID 11186),SID160730156,-1.29,56.3,-0.637,74.4,inactive
RASSF1 (GeneID 11186),SID160730518,-0.588,70.2,-0.704,94.4,inactive
MPP7 (GeneID 143098),SID160758002,1.32,108,1.01,92.5,inactive
MPP7 (GeneID 143098),SID160758003,-0.494,72.1,-0.304,87.2,inactive
MPP7 (GeneID 143098),SID160758004,-0.264,76.6,-0.516,98.1,inactive
MRPL46 (GeneID 26589),SID160738112,2.99,141,2.21,88.3,inactive
MRPL46 (GeneID 26589),SID160738113,-1.68,48.4,-1.19,74,inactive
MRPL46 (GeneID 26589),SID160738114,-0.671,68.5,-0.277,82.4,inactive
RIT2 (GeneID 6014),SID160715908,0.0988,83.9,-0.446,105,inactive
RIT2 (GeneID 6014),SID160715909,-0.532,71.3,-0.743,96.9,inactive
RIT2 (GeneID 6014),SID160715910,-0.87,64.6,0.366,65.5,inactive
PCSK9 (GeneID 255738),SID160762354,0.638,94.6,0.186,101,inactive
PCSK9 (GeneID 255738),SID160762355,2.62,134,1.47,102,inactive
PCSK9 (GeneID 255738),SID160762356,-1.45,53,-1.5,87.8,inactive
GTF2H2 (GeneID 2966),SID160723820,-1.15,59.1,-1.33,93.6,inactive
GTF2H2 (GeneID 2966),SID160731040,2.65,135,3.45,60.6,inactive
GTF2H2 (GeneID 2966),SID160774701,-0.0952,80,0.745,73.5,inactive
